Assay in all cases: affinity purification with mass spectrometry; C-terminal Flag-HA bait transiently expressed in S2R+ cells; clarified lysate with RNase inhibitors, no crosslinking; single-step anti-HA purification, extensive washes, release by competition; LC/MS/MS; biological duplicate
Assay [1] concerns the target B52 (Drosophila melanogaster) (UniProt P26686).
Assay [2] concerns the target U2AF50 (Drosophila melanogaster) (UniProt Q24562).
Assay [3] has as its target T1, PS (Drosophila melanogaster).
T1 sequence: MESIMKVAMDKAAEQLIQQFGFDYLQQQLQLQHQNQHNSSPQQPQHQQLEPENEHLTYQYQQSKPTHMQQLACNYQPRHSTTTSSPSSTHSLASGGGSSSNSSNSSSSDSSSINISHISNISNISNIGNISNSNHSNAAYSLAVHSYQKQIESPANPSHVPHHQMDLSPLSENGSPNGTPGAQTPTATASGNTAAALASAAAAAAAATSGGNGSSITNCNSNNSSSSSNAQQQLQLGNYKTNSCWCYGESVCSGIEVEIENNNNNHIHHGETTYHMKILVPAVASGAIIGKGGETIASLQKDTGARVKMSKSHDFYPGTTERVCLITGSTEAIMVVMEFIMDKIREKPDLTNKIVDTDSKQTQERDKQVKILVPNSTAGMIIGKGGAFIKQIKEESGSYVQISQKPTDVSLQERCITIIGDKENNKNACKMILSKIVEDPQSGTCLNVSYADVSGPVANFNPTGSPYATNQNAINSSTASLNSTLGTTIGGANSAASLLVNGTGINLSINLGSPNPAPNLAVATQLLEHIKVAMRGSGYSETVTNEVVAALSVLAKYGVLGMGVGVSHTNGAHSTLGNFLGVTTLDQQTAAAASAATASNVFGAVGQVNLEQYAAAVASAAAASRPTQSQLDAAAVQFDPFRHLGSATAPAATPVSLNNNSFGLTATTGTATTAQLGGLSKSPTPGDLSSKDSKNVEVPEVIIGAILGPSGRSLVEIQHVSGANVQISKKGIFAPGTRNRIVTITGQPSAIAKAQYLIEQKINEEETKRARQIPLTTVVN

Chains of the proteins cited; added tags and fusions are not shown. Lines headed by an entry give the natural chain unless they say otherwise; changes in a name come on top. A line that says so, or that is headed by a name, gives the form on record, which may keep a tag or linker.
B52 (P26686, form named): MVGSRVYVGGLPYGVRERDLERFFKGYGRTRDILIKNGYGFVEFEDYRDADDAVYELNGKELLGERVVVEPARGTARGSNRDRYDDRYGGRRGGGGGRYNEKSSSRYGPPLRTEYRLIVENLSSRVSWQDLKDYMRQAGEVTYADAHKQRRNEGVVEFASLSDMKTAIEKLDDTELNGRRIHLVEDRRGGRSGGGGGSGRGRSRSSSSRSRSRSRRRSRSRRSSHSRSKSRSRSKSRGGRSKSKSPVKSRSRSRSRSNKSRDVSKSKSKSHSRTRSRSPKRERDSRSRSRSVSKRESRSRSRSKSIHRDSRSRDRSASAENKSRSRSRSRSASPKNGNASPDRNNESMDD
UniProt Q24562: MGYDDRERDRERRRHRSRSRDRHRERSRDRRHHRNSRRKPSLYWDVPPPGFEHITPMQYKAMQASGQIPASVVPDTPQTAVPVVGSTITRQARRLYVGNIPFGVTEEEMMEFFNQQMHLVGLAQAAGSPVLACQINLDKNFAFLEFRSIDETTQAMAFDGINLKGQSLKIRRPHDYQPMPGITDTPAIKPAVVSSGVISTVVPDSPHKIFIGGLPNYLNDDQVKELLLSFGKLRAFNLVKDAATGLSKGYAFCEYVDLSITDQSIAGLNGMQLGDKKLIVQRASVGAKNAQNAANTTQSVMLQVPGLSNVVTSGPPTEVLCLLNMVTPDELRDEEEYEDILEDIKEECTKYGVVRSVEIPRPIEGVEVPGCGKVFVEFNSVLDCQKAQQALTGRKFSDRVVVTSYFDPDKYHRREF
UniProt Q9VAX8: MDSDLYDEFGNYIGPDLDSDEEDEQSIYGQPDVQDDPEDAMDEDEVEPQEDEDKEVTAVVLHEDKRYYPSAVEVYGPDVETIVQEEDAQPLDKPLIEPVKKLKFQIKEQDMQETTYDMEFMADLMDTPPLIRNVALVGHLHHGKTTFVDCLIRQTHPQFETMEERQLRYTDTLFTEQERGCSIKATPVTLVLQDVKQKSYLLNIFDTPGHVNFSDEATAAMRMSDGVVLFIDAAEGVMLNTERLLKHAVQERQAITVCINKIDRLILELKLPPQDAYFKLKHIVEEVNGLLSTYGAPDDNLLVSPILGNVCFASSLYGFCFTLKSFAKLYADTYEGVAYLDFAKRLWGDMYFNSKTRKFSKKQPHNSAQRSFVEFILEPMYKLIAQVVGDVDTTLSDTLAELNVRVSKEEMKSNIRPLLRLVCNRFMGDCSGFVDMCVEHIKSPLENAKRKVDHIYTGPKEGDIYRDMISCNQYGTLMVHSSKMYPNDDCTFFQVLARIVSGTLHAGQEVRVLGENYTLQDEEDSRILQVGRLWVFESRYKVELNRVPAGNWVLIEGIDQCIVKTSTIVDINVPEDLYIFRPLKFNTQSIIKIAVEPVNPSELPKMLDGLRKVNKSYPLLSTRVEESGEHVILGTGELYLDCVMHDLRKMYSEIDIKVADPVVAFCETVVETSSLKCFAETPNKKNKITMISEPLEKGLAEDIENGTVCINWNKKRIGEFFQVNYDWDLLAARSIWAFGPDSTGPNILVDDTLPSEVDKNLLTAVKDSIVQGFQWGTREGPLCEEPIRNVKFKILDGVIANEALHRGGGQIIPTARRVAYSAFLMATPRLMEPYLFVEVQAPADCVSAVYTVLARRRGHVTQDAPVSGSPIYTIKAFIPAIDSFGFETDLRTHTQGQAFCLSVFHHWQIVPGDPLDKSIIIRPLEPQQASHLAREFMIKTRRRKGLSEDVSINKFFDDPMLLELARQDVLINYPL
UniProt Q9VEP9: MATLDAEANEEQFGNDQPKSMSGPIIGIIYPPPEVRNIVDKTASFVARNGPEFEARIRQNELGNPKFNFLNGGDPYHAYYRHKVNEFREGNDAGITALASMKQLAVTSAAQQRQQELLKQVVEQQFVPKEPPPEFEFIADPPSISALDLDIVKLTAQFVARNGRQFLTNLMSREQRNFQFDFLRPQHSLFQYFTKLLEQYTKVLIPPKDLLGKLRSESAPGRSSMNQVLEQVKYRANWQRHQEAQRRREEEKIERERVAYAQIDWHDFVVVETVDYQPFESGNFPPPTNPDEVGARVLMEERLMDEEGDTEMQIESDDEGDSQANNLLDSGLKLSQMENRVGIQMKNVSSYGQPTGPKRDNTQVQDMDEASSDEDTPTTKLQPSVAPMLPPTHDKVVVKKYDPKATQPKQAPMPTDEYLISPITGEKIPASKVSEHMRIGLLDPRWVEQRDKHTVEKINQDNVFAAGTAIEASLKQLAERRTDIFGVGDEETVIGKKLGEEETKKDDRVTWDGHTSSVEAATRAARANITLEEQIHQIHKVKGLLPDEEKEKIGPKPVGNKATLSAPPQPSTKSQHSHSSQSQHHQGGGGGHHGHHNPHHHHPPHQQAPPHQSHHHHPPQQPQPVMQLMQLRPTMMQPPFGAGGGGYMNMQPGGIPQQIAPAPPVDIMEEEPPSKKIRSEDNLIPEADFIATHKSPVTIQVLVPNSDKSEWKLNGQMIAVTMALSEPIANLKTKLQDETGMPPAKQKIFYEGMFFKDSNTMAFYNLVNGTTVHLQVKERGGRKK

Assay [4] has as its target SYP (Drosophila melanogaster).
Assay [5] deals with B52 (Drosophila melanogaster) (UniProt P26686). This is another data set of the same source.

Binding data for five molecules are collected here from paper PMC4617965.

Where two headings read alike, the source gives them in different places. Results are given in words; binding and its absence hold for the method and conditions named. In cells and extracts the contact can be indirect. Here binding means that the protein was enriched with, or labelled near, the bait; the list need not be complete.

As to CG4849 protein (from UniProt Q9VAX8), in assay [1], the binding result is reported as “binds”. Take CG16941 (from UniProt Q9VEP9): the binding entry in assay [2] and in assay [1] was “binds” each time. Regarding MSI (Drosophila melanogaster), in assay [3], the binding result is “binds”.

B1: HOW (protein, UniProt O01367 1-405)
chain: MSVCESKAVVQQQLQQHLQQQAAAAVVAVAQQQQAQAQAQAQAQAQQQQQAPQVVVPMTPQHLTPQQQQQSTQSIADYLAQLLKDRKQLAAFPNVFTHVERLLDEEIARVRASLFQINGVKKEPLTLPEPEGSVVTMNEKVYVPVREHPDFNFVGRILGPRGMTAKQLEQETGCKIMVRGKGSMRDKKKEDANRGKPNWEHLSDDLHVLITVEDTENRATVKLAQAVAEVQKLLVPQAEGEDELKKRQLMELAIINGTYRDTTAKSVAVCDEEWRRLVAASDSRLLTSTGLPGLAAQIRAPAAAPLGAPLILNPRMTVPTTAASILSAQAAPTAAFDQTGHGMIFAPYDYANYAALAGNPLLTEYADHSVGAIKQQRRLATNREHPYQRATVGVPAKPAGFIEIQ
Take B1: the binding entry in assay [4] was “binds”.

B2: CG13900 (protein, UniProt Q9W0M7 1-1227)
chain: MYLYNLTLQKATGVTHAVHGNFSGGKQQEVLLSRGKSLELLRPDSNTGKVHTLLSTEIFGCVRALMAFRLTGGTKDYIVVGSDSGRIVILEYNPSKNALEKVHQETFGKSGCRRIVPGQYFAIDPKGRAVMIGAVEKQKLAYIMNRDTQARLTISSPLEAHKSNTLTYHMVGVDVGFDNPMFACLEIDYEEADMDPSGDAAQRTQQTLTFYELDLGLNHVVRKYSEPLEEHANFLVSVPGGNDGPSGVLICSENYLTYKNLGDQHDIRCPIPRRRNDLDDPERGMIFICSATHRTKSMYFFLLQTEQGDIFKITLETDDDVVSEIKLKYFDTVPPATAMCVLKTGFLFVASEFGNHYLYQIAHLGDDDDEPEFSSAMPLEEGETFFFAPRALKNLVLVDELPSFAPIITSQVADLANEDTPQLYVLCGRGPRSTLRVLRHGLEVSEMAVSELPGNPNAVWTVKKRADDEFDAYIIVSFVNATLVLSIGETVEEVTDSGFLGTTPTLCCAALGDDALVQVYPDGIRHIRSDKRVNEWKAPGKKSITKCAVNQRQVVITLSGRELVYFEMDPTGELNEYTERSEMPAEIMCMALGTVPEGEQRSWFLAVGLADNTVRILSLDPNNCLTPCSMQALPSPAESLCLVEMGHTESTTQGGLDDDAPAQRSGNNKGTIYLNIGLSNGVLLRTVLDPVSGDLADTRTRYLGSRPVKLFRIKMQGSEAVLAMSSRTWLSYYHQNRFHLTPLSYETLEYASGFSSEQCSEGIVAISTNTLRILALEKLGAVFNQVAFPLQYTPRTFVIHPDTGRMLIAETDHNAYTEDTKSARKEQMAEEMRSAAGDEERELAREMANAFINEVLPEDVFSSPKAGLGLWASQIRCLDAMHGQTMFSVPLTQNEAIMSMAMLKFSIAADGRYYLAVGIAKDLQLNPRISQGGCIDIYKIDPTCSSLEFMHRTDIDEIPGALCGFQGRLLAGCGRMLRIYDFGKKKMLRKCENKHIPYQIVNIQAMGHRVYVSDVQESVFFIRYRRAENQLIIFADDTHPRWVTATTLLDYDTIAIADKFGNLSIQRLPHSVTDDVDEDPTGTKSLWDRGLLSGASQKSENICSFHVGEIIMSLQKATLIPGGSEALIYATLSGTVGAFVPFTSREDYDFFQHLEMHMRNENPPLCGRDHLSYRSSYYPVKNVLDGDLCEQYLSIEAAKQKSIAGDMFRTPNQICKKLEDIRTRYAF
Turning to B2, the binding result in assay [5] is recorded as “binds”.
